This is an account of results in paper doi:10.1101/2021.08.11.456030.

In this experiment the target is T1, Moloney leukaemia virus 10 homologue (MOV10) (mouse (endogenous in mESCs)) (UniProt P23249).
T1 sequence: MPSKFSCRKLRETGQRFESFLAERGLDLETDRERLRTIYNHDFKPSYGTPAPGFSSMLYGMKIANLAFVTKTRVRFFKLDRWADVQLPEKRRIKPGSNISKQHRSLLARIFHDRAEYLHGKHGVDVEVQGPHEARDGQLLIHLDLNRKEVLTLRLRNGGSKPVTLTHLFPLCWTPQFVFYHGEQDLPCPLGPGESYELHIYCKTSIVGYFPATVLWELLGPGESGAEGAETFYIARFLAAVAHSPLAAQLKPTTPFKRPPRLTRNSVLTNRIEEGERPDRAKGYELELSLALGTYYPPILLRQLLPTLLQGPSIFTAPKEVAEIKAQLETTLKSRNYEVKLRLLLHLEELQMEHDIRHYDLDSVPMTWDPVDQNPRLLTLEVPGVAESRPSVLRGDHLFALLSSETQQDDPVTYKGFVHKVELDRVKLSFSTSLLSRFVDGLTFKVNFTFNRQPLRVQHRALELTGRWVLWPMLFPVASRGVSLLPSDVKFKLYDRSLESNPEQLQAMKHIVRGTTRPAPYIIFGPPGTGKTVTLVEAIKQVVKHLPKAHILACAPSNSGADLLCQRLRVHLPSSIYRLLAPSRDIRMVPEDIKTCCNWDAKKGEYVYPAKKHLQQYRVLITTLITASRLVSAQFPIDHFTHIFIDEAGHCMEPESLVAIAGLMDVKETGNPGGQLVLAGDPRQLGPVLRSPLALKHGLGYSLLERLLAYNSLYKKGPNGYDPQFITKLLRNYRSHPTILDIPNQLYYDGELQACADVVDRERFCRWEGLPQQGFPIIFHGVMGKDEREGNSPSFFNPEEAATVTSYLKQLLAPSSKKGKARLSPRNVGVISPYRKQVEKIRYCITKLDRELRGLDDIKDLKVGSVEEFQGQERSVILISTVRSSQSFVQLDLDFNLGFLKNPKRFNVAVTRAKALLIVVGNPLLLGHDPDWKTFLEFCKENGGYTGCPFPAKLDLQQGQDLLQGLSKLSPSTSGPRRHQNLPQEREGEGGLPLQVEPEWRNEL
Nature of the experiment: affinity purification with mass spectrometry.

Results are given in words; binding and its absence hold for the method and conditions named. Binding seen in cells or lysates may run through a third protein. Here binding means that the protein was enriched with, or labelled near, the bait; the list need not be complete.

B1: YTHDF2 (protein, UniProt Q91YT7 1-579)
chain: MSASSLLEQRPKGQGNKVQNGSVHQKDGLNDDDFEPYLSPQARPNNAYTAMSDSYLPSYYSPSIGFSYSLGEAAWSTGGDTAMPYLTSYGQLSNGEPHFLPDAMFGQPGALGSTPFLGQHGFNFFPSGIDFSAWGNNSSQGQSTQSSGYSSNYAYAPSSLGGAMIDGQSAFANETLNKAPGMNTIDQGMAALKLGSTEVASSVPKVVGSAVGSGSITSNIVASSSLPPATIAPPKPASWADIASKPAKQQPKLKTKNGIAGSSLPPPPIKHNMDIGTWDNKGPVAKAPSQALVQNIGQPTQGSPQPVGQQANNSPPVAQASVGQQTQPLPPPPPQPAQLSVQQQAAQPTRWVAPRNRGSGFGHNGVDGNGVGQSQAGSGSTPSEPHPVLEKLRSINNYNPKDFDWNLKHGRVFIIKSYSEDDIHRSIKYNIWCSTEHGNKRLDAAYRSMNGKGPVYLLFSVNGSGHFCGVAEMKSAVDYNTCAGVWSQDKWKGRFDVRWIFVKDVPNSQLRHIRLENNENKPVTNSRDTQEVPLEKAKQVLKIIASYKHTTSIFDDFSHYEKRQEEEESVKKERQGRGK
As to B1, the binding entry was “binds”.
